The list shows a part of the results. Small differences around the control level are noise.

Chains of the proteins cited; added tags and fusions are not shown. Lines headed by an entry give the natural chain unless they say otherwise; changes in a name come on top.
UniProt O43149: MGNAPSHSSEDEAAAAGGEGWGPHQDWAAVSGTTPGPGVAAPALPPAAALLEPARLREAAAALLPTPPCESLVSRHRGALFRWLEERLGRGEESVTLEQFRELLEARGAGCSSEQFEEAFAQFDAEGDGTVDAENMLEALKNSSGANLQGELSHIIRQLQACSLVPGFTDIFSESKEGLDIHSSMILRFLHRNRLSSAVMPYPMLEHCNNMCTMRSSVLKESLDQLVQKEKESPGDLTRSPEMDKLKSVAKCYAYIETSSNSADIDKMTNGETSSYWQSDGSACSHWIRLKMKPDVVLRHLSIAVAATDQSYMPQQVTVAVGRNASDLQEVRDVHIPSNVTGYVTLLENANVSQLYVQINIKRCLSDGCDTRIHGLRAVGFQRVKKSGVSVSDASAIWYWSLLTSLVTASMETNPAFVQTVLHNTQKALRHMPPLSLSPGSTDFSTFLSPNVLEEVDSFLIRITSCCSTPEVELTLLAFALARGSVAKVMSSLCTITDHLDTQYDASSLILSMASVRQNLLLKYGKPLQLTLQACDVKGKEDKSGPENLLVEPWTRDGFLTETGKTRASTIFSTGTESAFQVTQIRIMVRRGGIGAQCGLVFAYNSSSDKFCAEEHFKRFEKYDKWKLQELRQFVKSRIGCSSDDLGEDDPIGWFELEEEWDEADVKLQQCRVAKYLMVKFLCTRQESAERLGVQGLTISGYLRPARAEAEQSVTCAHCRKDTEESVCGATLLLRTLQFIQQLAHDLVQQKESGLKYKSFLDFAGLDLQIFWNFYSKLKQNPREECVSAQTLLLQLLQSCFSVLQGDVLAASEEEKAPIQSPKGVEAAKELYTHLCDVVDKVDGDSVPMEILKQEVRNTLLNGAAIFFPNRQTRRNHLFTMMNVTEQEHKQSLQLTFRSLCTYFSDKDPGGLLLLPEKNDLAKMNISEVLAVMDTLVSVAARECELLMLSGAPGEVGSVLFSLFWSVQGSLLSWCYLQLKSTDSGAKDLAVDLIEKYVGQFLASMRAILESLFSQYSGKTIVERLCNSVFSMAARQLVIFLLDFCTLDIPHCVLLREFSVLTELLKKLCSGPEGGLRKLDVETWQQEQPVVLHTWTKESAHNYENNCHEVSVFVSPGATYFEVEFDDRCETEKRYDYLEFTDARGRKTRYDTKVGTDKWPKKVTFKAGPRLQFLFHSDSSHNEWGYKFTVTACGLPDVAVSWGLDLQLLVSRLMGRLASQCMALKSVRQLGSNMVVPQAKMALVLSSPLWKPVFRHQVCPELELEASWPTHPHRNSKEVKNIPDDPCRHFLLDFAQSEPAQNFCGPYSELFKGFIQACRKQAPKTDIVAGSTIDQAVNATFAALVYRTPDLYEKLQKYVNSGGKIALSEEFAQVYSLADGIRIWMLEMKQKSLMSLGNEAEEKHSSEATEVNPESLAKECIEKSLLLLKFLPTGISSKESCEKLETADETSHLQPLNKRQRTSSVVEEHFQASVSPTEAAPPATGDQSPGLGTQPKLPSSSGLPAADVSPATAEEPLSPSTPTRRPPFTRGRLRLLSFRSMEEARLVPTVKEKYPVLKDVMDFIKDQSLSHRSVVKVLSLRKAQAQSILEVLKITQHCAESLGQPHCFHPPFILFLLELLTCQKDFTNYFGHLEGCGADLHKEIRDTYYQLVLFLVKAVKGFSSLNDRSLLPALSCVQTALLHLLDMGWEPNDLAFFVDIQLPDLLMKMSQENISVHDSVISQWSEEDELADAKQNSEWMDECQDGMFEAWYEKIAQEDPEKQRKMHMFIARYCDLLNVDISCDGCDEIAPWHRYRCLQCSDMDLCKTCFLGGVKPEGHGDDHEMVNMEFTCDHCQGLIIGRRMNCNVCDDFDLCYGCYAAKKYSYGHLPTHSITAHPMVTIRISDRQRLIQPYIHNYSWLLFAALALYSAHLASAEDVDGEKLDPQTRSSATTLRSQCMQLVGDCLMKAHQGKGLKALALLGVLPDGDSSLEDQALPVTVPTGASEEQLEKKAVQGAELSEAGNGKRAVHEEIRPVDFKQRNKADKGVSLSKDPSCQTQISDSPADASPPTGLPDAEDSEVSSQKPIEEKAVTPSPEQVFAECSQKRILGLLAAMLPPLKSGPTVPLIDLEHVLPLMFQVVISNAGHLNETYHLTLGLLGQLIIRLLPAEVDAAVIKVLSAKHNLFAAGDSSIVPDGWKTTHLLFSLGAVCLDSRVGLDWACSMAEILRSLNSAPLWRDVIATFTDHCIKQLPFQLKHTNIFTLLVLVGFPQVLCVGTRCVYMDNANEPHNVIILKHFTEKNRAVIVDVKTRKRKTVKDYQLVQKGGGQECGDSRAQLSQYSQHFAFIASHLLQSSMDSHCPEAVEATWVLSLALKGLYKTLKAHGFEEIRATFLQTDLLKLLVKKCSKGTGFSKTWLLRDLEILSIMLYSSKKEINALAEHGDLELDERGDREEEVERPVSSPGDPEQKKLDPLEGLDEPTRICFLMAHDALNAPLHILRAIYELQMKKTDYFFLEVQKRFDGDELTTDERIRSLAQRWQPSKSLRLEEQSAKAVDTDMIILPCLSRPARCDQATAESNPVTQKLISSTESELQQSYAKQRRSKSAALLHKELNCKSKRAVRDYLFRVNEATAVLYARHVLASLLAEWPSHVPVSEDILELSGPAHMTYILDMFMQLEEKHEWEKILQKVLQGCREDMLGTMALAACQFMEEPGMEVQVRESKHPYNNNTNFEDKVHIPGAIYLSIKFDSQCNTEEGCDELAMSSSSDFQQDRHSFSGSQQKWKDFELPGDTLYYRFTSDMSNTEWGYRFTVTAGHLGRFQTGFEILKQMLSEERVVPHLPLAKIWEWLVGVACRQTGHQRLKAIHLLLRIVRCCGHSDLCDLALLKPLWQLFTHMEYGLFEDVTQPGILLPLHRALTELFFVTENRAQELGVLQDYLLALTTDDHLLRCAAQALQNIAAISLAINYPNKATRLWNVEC
UniProt O60318: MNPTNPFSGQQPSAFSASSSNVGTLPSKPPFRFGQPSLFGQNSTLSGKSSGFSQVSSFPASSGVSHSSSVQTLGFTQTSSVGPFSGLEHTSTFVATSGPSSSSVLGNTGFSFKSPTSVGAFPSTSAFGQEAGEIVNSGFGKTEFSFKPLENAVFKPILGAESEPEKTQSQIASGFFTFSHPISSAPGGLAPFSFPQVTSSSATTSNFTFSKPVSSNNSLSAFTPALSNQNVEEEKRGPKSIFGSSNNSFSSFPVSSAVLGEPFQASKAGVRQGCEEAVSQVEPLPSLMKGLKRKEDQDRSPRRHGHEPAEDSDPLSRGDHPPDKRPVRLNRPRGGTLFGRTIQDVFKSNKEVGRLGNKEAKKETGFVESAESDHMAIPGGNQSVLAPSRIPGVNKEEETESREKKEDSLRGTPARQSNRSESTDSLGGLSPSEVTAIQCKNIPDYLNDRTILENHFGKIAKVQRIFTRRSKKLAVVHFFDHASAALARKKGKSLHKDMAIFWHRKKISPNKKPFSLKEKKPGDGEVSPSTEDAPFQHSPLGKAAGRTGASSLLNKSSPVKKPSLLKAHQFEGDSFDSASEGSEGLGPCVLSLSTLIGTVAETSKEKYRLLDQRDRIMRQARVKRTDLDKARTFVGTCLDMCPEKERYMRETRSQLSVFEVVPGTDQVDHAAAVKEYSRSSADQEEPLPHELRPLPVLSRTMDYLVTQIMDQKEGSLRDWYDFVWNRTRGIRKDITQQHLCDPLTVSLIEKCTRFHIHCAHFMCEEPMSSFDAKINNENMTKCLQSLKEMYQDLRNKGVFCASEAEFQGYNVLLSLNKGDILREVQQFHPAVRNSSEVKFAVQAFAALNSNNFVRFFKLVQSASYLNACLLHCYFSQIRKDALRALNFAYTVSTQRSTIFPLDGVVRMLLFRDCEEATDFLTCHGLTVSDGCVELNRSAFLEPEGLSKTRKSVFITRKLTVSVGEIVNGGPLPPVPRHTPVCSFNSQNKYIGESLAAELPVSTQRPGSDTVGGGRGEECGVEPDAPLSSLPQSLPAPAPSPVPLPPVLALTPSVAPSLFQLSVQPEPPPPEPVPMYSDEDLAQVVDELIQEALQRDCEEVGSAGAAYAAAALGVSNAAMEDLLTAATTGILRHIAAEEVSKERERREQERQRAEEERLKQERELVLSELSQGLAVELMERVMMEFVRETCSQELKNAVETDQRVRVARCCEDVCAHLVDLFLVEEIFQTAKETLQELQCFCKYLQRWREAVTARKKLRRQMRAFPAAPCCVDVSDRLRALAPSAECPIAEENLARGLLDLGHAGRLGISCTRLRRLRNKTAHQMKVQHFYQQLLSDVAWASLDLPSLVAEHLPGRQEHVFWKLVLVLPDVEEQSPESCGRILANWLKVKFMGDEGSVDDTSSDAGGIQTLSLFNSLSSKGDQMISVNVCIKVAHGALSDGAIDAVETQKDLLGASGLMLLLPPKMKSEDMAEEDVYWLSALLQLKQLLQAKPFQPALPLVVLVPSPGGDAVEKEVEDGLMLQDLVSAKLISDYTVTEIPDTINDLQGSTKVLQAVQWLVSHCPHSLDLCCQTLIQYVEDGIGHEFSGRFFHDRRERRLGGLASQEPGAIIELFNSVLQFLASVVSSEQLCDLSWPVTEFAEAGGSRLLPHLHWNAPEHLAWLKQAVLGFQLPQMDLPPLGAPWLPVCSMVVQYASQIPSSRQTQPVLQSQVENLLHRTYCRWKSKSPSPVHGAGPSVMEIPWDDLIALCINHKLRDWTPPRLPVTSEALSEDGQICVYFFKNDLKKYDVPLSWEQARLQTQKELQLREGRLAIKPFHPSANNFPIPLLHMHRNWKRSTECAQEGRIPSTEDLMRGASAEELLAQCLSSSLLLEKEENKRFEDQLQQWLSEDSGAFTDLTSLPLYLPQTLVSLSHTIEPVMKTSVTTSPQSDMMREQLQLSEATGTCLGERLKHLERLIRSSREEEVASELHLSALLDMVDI
UniProt O60645: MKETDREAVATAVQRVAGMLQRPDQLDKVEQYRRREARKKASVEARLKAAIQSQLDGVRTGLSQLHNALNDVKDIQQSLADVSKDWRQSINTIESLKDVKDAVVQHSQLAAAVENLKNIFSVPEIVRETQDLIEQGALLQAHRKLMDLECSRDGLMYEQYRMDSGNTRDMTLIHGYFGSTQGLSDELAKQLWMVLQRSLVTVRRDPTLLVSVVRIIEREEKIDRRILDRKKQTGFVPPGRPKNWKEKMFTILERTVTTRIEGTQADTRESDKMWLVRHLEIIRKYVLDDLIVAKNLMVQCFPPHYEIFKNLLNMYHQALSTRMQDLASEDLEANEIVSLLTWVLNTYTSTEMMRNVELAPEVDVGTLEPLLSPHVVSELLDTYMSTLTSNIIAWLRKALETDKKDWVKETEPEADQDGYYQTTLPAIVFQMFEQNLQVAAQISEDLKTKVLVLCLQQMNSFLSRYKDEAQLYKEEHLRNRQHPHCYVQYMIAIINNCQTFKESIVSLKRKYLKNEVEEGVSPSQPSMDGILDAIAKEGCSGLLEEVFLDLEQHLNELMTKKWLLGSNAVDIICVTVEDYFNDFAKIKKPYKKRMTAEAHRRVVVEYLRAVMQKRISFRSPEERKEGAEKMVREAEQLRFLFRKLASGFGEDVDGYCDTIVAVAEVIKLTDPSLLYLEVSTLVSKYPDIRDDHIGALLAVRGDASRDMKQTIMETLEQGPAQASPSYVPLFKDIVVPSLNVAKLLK
UniProt O60573: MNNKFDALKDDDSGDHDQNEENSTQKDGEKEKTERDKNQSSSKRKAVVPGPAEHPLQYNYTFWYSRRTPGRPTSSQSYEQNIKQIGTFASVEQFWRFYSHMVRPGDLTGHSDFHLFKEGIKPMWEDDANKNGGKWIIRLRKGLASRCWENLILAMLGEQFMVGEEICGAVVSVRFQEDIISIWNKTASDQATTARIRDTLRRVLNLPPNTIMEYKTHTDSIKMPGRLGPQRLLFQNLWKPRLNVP
UniProt O43172: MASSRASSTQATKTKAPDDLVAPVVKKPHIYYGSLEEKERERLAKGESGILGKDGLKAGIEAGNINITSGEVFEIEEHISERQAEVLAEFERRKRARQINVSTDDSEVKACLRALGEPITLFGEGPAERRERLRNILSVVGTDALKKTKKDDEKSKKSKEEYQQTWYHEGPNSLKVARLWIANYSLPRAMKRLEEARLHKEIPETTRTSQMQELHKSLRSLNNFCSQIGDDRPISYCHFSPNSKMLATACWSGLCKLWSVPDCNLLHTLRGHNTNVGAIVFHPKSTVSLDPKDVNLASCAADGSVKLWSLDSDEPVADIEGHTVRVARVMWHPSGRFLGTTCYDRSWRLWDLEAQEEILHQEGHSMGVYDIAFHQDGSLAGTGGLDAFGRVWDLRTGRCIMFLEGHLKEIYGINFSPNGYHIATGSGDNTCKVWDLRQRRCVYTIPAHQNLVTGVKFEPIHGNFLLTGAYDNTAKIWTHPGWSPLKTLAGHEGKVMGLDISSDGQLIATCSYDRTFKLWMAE

Compound in this test: Cc1nc(Nc2ncc(C(=O)Nc3c(C)cccc3Cl)s2)cc(N2CCN(CCO)CC2)n1 [dasatinib]
The test is described as follows: log2 fold change of tryptic peptide abundance, ligand vs vehicle (limited proteolysis) (log2 ratio); higher = more trypsin-susceptible (destabilized). The following applies: ligand concentration: 5 uM; sample: K562 cleared lysate.
Regarding “ZZEF1 (peptide sequence: AVQGAELSEAGNGKR, peptide start residue: 1994) (UniProt O43149)”, the log2 fold change is -0.424.

“PSMD3 (peptide sequence: HDADGQATLLNLLLR, peptide start residue: 242) (UniProt O43242)”: the log2 fold change stood at 0.645.

On to “MCM3AP (peptide sequence: IPGVNKEEETESR, peptide start residue: 390) (UniProt O60318)”, for which the log2 fold change was -0.55.

Take “EXOC3 (peptide sequence: KLMDLECSR, peptide start residue: 144) (UniProt O60645)”: the log2 fold change is 0.455.

Take “EIF4E2 (peptide sequence: LLFQNLWK, peptide start residue: 232) (UniProt O60573)”: the log2 fold change was -0.499.

Take “URB1 (peptide sequence: MMQTILHFPQNR, peptide start residue: 1602) (UniProt O60287)”: the log2 fold change worked out at 0.341.

“PRPF4 (peptide sequence: CVYTIPAHQNLVTGVK, peptide start residue: 441) (UniProt O43172)”: the log2 fold change is -0.266.

With “SORBS3 (peptide sequence: GDIVYIHK, peptide start residue: 404) (UniProt O60504)”, the log2 fold change was -0.14.

On to “SPAG9 (peptide sequence: HTEMIHNYMEHLER, peptide start residue: 163) (UniProt O60271)”, for which the log2 fold change was determined as 0.0905.

Source of the values: the supplement of paper PMC12819154, “High-throughput peptide-centric local stability assay extends protein–ligand identification to membrane proteins, tissues and bacteria” (Nature Structural & Molecular Biology, 2025).
